# In all, about 300,000 compounds went through this assay and about 5,400 (1.8%) were called active. This list was built around the results that the source calls inconclusive (neither active nor inactive); the mix of calls is not that of the screen. Calls come from the whole dose curve; tested in HEK293 cells. Potencies beside an inconclusive call are fits to weak or partial responses and may not hold up.
# Assay: qHTS for inhibitors of binding or entry into cells for Marburg Virus
# Conditions: Marburg virus pseudotyped entry inhibition, cell reporter; activity change, negative = inhibition: at 37.8 µM (top of the series) unless noted
# % is set by controls: 0 for no effect and ±100 for the full control effect; potency is the fitted concentration of half-maximal effect.
Structure (SMILES),Potency,"activity change, negative = inhibition"
CC1(C)CC2CC(C)(CN2C(=O)COC(=O)c2n[nH]c(=O)c3ccccc23)C1 (centres undefined),"inconclusive: 1.26 µM [inhibitor, single point]",
CCc1cc(C(=O)Cc2ccc(F)cc2)c(O)cc1O,"inconclusive: 14.1 µM [inhibitor, partial curve, poor fit]",
NC(=O)CSc1nc2ccccc2c(=O)n1CCc1ccccc1,,inactive: 31.7% [at 46.1 µM]
O=C(CC1COc2ccccc2O1)NCCc1ccccc1 (centres undefined),,inactive: 7.18%
Cc1ccc(S(=O)(=O)Cc2ccc(C(=O)N3CCN(c4cccc(Cl)c4)CC3)o2)cc1,"inconclusive: 7.08 µM [inhibitor, partial curve, poor fit]",
CC(C)C(=O)Nc1cccc(COc2ccc(CN(CCc3ccccc3)C(=O)OC(C)(C)C)cc2)c1,"inconclusive: 9.95 µM [inhibitor, partial curve, poor fit]",
COc1cccc(-c2csc(N3CCN(C(=S)Nc4ccccc4OC)CC3)n2)c1,,inactive: -24.7%
COCCNC(=O)c1cc2oc3ccccc3c2n1C,,inactive: 22%
COC(=O)C1=NN(C(=O)c2cccc(Cl)c2)C(O)(C(C)(C)C)C1 (centres undefined),,inactive: 0.75%
O=C(CN1CCC(Cc2ccccc2)CC1)NCCc1ccc(F)cc1,,inactive: 18.7% [at 46.1 µM]
CNC(=S)N(Cc1ccc(Cl)cc1)Cc1cccs1,"inconclusive: 11.2 µM [inhibitor, single point]",
CCSc1ccccc1C(=O)Nc1ccc(S(=O)(=O)NC(C)=O)cc1,"inconclusive: 1.78 µM [inhibitor, partial curve, poor fit]",
CCCOc1ccc(S(=O)(=O)NNC(=O)c2cc3ccccc3o2)cc1,,inactive: 3.91%
COc1ccc2[nH]c3c(c2c1)CCN(C(=O)c1cccc(Cl)c1)C3c1ccc(F)cc1 (centres undefined),active: 1 µM,
CC(=O)Nc1ccc(S(=O)(=O)Oc2ccc(C=O)cc2)cc1,"inconclusive: 2.51 µM [activator, partial curve, poor fit]",
Cc1cccc(NC(=S)/N=C(\N)Nc2nc(C)c3ccccc3n2)c1,"inconclusive: 1.16 µM [inhibitor, partial curve, poor fit]",
O=C(NCc1nc(-c2ccc(C(F)(F)F)cc2)no1)Nc1ccc(OC(F)(F)F)cc1,"inconclusive: 35.5 µM [inhibitor, single point]",
CCCCOC(=O)CSC1=C(C#N)C(c2ccccc2OC)C(C#N)C(=O)N1 (centres undefined),"inconclusive: 3.98 µM [inhibitor, full curve, poor fit]",
CCOC(=O)c1ccc(C(=O)NNC(=O)C2CC=CCC2)cc1 (centres undefined),"inconclusive: 17.8 µM [activator, single point]",
Cc1ccc(CSc2ncc(Cl)c(C(=O)NCc3ccccc3)n2)cc1,,inactive: 8.77% [at 46.1 µM]
Cc1c(C)c2ccc(OS(C)(=O)=O)cc2oc1=O,"inconclusive: 2.24 µM [activator, partial curve, poor fit]",
Cc1cnc(C(=O)NC(Cc2ccccc2)c2ccccc2)cn1 (centres undefined),,inactive: 3.96% [at 46.1 µM]
Cc1ccc(C)c(NC(=S)NC(NC(=O)N(C)C)C(Cl)(Cl)Cl)c1 (centres undefined),,inactive: 8.19%
Cc1cccc(C(=O)Nc2sc3c(c2C#N)CCCCC3)c1,"inconclusive: 12.6 µM [inhibitor, single point]",
COCCN1CCN(Cc2nc(Cc3ccc(OC)c(OC)c3)no2)CC1,,inactive: 10.9% [at 46.1 µM]

Structure (SMILES),Potency,"activity change, negative = inhibition"
COC(=O)c1cc(=O)n(CCc2ccc(OC)cc2)c(=Nc2ccc(F)c(Cl)c2)s1,,inactive: -2.4%
CCc1ccc2[nH]c(=O)c(CN(Cc3ccc4c(c3)OCO4)Cc3nnnn3C3CCCC3)cc2c1,"inconclusive: 23.1 µM [inhibitor, single point]",
O=C(C[n+]1cc(-c2ccccc2)n2c1CCC2)c1cccs1,"inconclusive: 7.08 µM [inhibitor, partial curve, poor fit]",
O=C(/C=C/c1ccc(S(=O)(=O)NCc2ccco2)cc1)NCc1ccccc1Cl,"inconclusive: 35.5 µM [inhibitor, single point]",
Cc1c(S(=O)(=O)c2ccccn2)c(N)n(Cc2ccccc2Cl)c1C,"inconclusive: 10 µM [inhibitor, partial curve, poor fit]",
CC(C)(C)c1ccc(S(=O)(=O)NNC(=O)c2cc3ccccc3[nH]2)cc1,,inactive: 4.74%
COc1ccc2c(c1)Cc1sc(NC(C)=O)nc1-2,"inconclusive: 0.0461 µM [activator, partial curve, poor fit]",
O=C(OCC(=O)N1CCN(C(=O)c2ccco2)CC1)c1cc(-c2ccc(Cl)c(Cl)c2Cl)nc2ccccc12,"inconclusive: 35.5 µM [inhibitor, partial curve, poor fit]",
COc1cccc(C2C3=C(Nc4[nH]n(-c5ccccc5)c(=O)c42)c2ccccc2C3=O)c1 (centres undefined),,inactive: 1.76%
COc1ccc(CNCc2ccncc2)cc1OC,,inactive: 1.78%
COc1ccc(C2=C(N)c3ccccc3C2=O)cc1,,inactive: 22.1%
O=C(N/N=C1/C[C@@H](O)[C@@H](O)[C@@H]2[C@@H]3C(=O)N(C[C@@H]4CCCO4)C(=O)[C@H]3CC[C@H]12)OCc1ccccc1,"inconclusive: 2.66 µM [activator, partial curve, poor fit]",
N=C1C(c2nc(-c3cccc([N+](=O)[O-])c3)cs2)=C(O)CN1NC(=O)c1ccco1,"inconclusive: 3.98 µM [inhibitor, full curve, poor fit]",
O=C(c1ccc(COc2ccc(Cl)cc2Cl)o1)N1CCCC1,,inactive: 1.18%
NS(=O)(=O)c1ccc(Sc2nc3ccccc3s2)c([N+](=O)[O-])c1,"inconclusive: 35.5 µM [inhibitor, partial curve, poor fit]",
CCC(C)(C)c1ccc(Oc2ccc(NC(=O)COC(=O)C3=COCCO3)cc2)cc1,"inconclusive: 29.1 µM [inhibitor, single point]",
O=S(=O)(c1cccc(C(F)(F)F)c1)N1CCN(C(=S)NCc2ccco2)CC1,"inconclusive: 35.5 µM [inhibitor, single point]",
CCOc1ccc(NC(=O)c2ccc3c(c2)CCN3S(=O)(=O)CC)cc1,,inactive: -9.21% [at 46.1 µM]
O=C(Nc1cccc(C(=O)N2CCOCC2)c1)NC1CCCCC1,"inconclusive: 11.2 µM [activator, partial curve, poor fit]",
CCOC(=O)/C(C#N)=C/c1cn(CCC(=O)O)nc1-c1ccc(OC)cc1,,inactive: 14.1% [at 46.1 µM]
COc1ccccc1C(=O)NNC(=O)c1cccc(C)c1,"inconclusive: 0.562 µM [inhibitor, full curve, poor fit]",
COc1ccc(CNC(=O)CCSc2nc(-c3ccc4c(c3)OCO4)cc(C(F)(F)F)n2)cc1,"inconclusive: 15.8 µM [inhibitor, single point]",
Cc1ccc(C(C)NC(=O)c2cccs2)cc1C (centres undefined),,inactive: -3.13% [at 46.1 µM]
CN(C)CCN(C(=O)C1CCN(S(=O)(=O)c2cccs2)CC1)c1nc2ccc(F)cc2s1,,inactive: -1.28%
CCOc1ccc(NC(=O)c2cc(OC)nc3ccccc23)cc1,,inactive: -23.1% [at 46.1 µM]

Structure (SMILES),Potency,"activity change, negative = inhibition"
Cc1c(-c2cc(C(=O)O)on2)cnn1C,,inactive: 4.25% [at 46.1 µM]
CCOc1ccc(N(CC(=O)NC2CCCCC2)S(=O)(=O)c2ccccc2)cc1,,inactive: 18.1% [at 46.1 µM]
CCOC(=O)c1cnc2c(-c3ccccc3)c(C)nn2c1N,,inactive: -26.3%
Cn1nnnc1SCC(=O)Nc1ccccc1Cl,"inconclusive: 7.94 µM [activator, partial curve, poor fit]",
COc1cc(C(=S)N2CCCC2)ccc1OCc1ccccc1,"inconclusive: 35.5 µM [activator, single point]",
Cc1cccc(OCc2nnc(SCC(=O)N3c4ccccc4CCc4ccccc43)o2)c1,"inconclusive: 35.5 µM [inhibitor, single point]",
CCOC(=O)c1c(C)[nH]c(C(=O)COC(=O)c2ccccc2NC(=O)c2ccco2)c1C,,inactive: -27.6%
CC(=O)N1CCc2cc(S(=O)(=O)NC(C(=O)Nc3nc(C)cs3)C(C)C)ccc21 (centres undefined),,inactive: 18.4%
COc1ccc(OCC(=O)NNC(=O)c2cccc(S(=O)(=O)N(C)C)c2)cc1,,inactive: 0.945%
CN(Cc1ccccc1)C1CCN(Cc2ccccc2[N+](=O)[O-])CC1,"inconclusive: 35.5 µM [inhibitor, single point]",
Cc1ccccc1NC(=O)/C(=C/c1ccco1)c1ccccc1,,inactive: -22.8%
COc1cccc(NC(=O)NCc2cccn2C)c1,"inconclusive: 4.47 µM [activator, full curve, poor fit]",
COc1ccc(C(=O)c2oc3ccccc3c2N)cc1,,inactive: -1.66%
COc1ccc(-c2coc3cc4oc(=O)cc(C)c4cc23)cc1F,"inconclusive: 8.2 µM [inhibitor, partial curve, poor fit]",
CC(=O)c1ccc(NC(=O)COc2ccccc2-c2nc(-c3cccc(C)c3)no2)cc1,,inactive: 4.97% [at 46.1 µM]
O=[N+]([O-])c1cccc(-c2nc(-c3ccncc3)no2)c1,"inconclusive: 35.5 µM [activator, single point]",
O=[N+]([O-])c1cc(C(F)(F)F)ccc1N1CCN(CCO)CC1,,inactive: 16.9% [at 46.1 µM]
Cc1ccc2c(c1)N(C(=O)CCC(=O)NCc1ccccc1Cl)CC(C)O2 (centres undefined),"inconclusive: 7.94 µM [inhibitor, partial curve, poor fit]",
CCOC(=O)Cn1c(C)nc2c(C(=O)OCC)sc(C)c2c1=O,"inconclusive: 35.5 µM [activator, single point]",
CCOc1ccccc1/C=N/Nc1ccc(Cl)nn1,,inactive: -4.57%
O=C(CCCc1ccccc1)NCCc1ccc(F)cc1,"inconclusive: 1.78 µM [inhibitor, partial curve, poor fit]",
NC(=O)CN1C(=O)NC(c2ccccc2)(c2ccccc2)C1=O,,inactive: -18.8% [at 46.1 µM]
Cc1cccc(N2CCN(C(=O)c3cc4cc(F)ccc4[nH]3)CC2)c1C,,inactive: -3.03%
O=C(Nc1cc(C(F)(F)F)ccc1Cl)c1cc(-c2ccc3c(c2)OCCO3)on1,,inactive: -0.218% [at 46.1 µM]

# Compounds shown so far containing a CF3 group:
Structure (SMILES),Potency,"activity change, negative = inhibition"
O=C(NCc1nc(-c2ccc(C(F)(F)F)cc2)no1)Nc1ccc(OC(F)(F)F)cc1,"inconclusive: 35.5 µM [inhibitor, single point]",
O=S(=O)(c1cccc(C(F)(F)F)c1)N1CCN(C(=S)NCc2ccco2)CC1,"inconclusive: 35.5 µM [inhibitor, single point]",
COc1ccc(CNC(=O)CCSc2nc(-c3ccc4c(c3)OCO4)cc(C(F)(F)F)n2)cc1,"inconclusive: 15.8 µM [inhibitor, single point]",
O=[N+]([O-])c1cc(C(F)(F)F)ccc1N1CCN(CCO)CC1,,inactive: 16.9% [at 46.1 µM]
O=C(Nc1cc(C(F)(F)F)ccc1Cl)c1cc(-c2ccc3c(c2)OCCO3)on1,,inactive: -0.218% [at 46.1 µM]

# From PubChem BioAssay AID540276 (National Center for Advancing Translational Sciences (NCATS), 2011)
